The target of assay [1] is EWSR1 (in NB4 cells) (human (endogenous in NB4)) (UniProt Q01844). The experiment in a line: immunoblot of EWSR1 oligomers; Western blot for EWSR1 oligomerization in NB4 cells treated with HHT at different concentrations. (Immunoblotting shows a protein as a band on a membrane.)
For assay [2], the target named is EWSR1 fused at its C-terminal region to a split mVenus fragment (EWSR1-VN and EWSR1-VC) (human) (UniProt Q01844). The experiment in a line: split reporter; BiFC with mVenus fragments VN1-173 and VC155-238; HEK293T cells co-transfected with EWSR1-VN and EWSR1-VC, fixed after 24 h, confocal microscopy; with or without HHT.
The target of assay [3] is T1, myc-tagged YTH domain of YTHDF2 (YTH^YHTDF2-myc) (UniProt Q9Y5A9).
T1 sequence: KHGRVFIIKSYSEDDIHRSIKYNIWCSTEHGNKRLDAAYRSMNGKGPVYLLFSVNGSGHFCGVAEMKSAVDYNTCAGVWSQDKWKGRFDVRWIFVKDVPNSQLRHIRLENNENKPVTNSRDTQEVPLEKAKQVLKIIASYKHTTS
The experiment in a line: co-IP; HEK293T cells cotransfected with constructs of EWSR1 (HA) and YTH-myc; cell extracts IP with anti-Myc antibodies, HA detected by blot.

The chains behind the UniProt entries cited, without tags or fusion partners. Where a name states a change or a piece, a line headed by the entry shows the natural chain unless it says otherwise.
UniProt Q01844: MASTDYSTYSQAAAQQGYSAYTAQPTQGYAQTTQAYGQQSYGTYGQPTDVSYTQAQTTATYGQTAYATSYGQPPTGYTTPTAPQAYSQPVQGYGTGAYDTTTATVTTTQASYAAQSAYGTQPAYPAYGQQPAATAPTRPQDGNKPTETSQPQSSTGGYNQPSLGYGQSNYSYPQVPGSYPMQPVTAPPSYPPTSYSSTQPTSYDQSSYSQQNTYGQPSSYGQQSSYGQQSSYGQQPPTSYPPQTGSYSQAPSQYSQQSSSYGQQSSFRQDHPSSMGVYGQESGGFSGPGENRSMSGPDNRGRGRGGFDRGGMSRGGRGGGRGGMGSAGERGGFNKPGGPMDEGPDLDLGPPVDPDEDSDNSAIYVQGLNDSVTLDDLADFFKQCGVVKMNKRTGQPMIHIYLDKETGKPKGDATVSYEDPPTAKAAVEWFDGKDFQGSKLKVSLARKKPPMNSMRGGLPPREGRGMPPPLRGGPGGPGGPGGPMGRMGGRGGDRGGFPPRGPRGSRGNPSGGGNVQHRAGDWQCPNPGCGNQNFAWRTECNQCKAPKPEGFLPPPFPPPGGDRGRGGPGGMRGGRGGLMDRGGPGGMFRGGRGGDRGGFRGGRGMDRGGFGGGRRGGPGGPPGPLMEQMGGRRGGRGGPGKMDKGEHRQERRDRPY

In assay [4] the target is HA-tagged full-length EWSR1 (HA-EWSR1) (human) (UniProt Q01844). The experiment in a line: co-IP; HEK293T cells transfected with HA-EWSR1 (with YTH-myc where named), with or without HHT; NP40 lysate, IP with anti-HA (HA-tag magnetic beads), western blot.

These are yes or no findings as the source states them, for the method shown. For some of these results: In cells and extracts the contact can be indirect. Some binding calls cover weakened binding; strength is not graded here. For some of these results: Sequences can lack the tags named with a protein.

Consider 4 molecules from PMC12747546, “Homoharringtonine suppresses acute myeloid leukemia progression by orchestrating EWSR1 phase separation in an m^6A‐YTHDF2‐dependent mechanism” (iMeta, 2025).

On to “EWSR1 (in NB4 cells) (from UniProt Q01844 1-656)”, for which the binding entry in assay [1] is recorded as “binds”.

Regarding “EWSR1 fused at its C-terminal region to a split mVenus fragment (EWSR1-VN and EWSR1-VC) (from UniProt Q01844 1-656)”, the binding entry in assay [2] is on record as “binds”.

Take “HA-tagged C-terminal region of EWSR1 (HA-EWSR1-C, amino acids 301-656) (from UniProt Q01844 301-656) (domain or fragment)”: the binding entry in assay [3] is given as “binds”.

B1: myc-tagged YTH domain of YTHDF2 (YTH^YHTDF2-myc) (domain or fragment, UniProt Q9Y5A9 408-552)
chain: KHGRVFIIKSYSEDDIHRSIKYNIWCSTEHGNKRLDAAYRSMNGKGPVYLLFSVNGSGHFCGVAEMKSAVDYNTCAGVWSQDKWKGRFDVRWIFVKDVPNSQLRHIRLENNENKPVTNSRDTQEVPLEKAKQVLKIIASYKHTTS
As to B1, the binding entry in assay [4] is “binds”.
